In PMC3610893, “The CouPSTU and TarPQM Transporters in Rhodopseudomonas palustris: Redundant, Promiscuous Uptake Systems for Lignin-Derived Aromatic Substrates” (PLoS ONE, 2013):

Target: T1, CouP (RPA1789) periplasmic binding-protein (Rhodopseudomonas palustris, UniProt Q6N8W4)
T1 sequence (Q6N8W4 27-385): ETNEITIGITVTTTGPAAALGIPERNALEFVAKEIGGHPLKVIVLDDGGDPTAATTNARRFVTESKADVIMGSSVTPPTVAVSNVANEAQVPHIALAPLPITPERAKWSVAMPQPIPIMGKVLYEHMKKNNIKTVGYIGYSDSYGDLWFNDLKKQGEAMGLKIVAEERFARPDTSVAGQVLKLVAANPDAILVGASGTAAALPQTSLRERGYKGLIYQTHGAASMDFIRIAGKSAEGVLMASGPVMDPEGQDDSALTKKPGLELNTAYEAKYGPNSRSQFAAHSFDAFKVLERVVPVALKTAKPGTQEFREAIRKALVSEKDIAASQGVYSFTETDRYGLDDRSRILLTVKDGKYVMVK
Assay: Intrinsic tryptophan fluorescence spectroscopy / ligand titrations with CouP (RPA1789)
Conditions: refolded protein 0.2 µM, 10 mM Tris-HCl pH 7.4, 30°C, emission 340 nm; three independent titrations; read-out: K d (nM) CouP (RPA1789), fluorescence titrations
Protocol: Pure protein was unfolded by dialysis against 1 L of 6 M urea for 16 hours at 4°C. Refolding was effected by dialysis against 2 L of refolding buffer (50 mM Tris-HCl pH 7.2 plus 100 mM NaCl) for 8 hours, the buffer being changed every 2 hours with a final overnight dialysis. Once removed from the dialysis tubing, protein was centrifuged (13,000×g, 10 mins, 4°C) to remove any precipitated misfolded protein.
Changes in the UV fluorescence of intrinsic tryptophan residues in RPA1782 and RPA1789 were measured using a Cary Eclipse fluorimeter (Varian Ltd, UK) in 10 mM Tris-HCl buffer pH 7.4 at 30°C in a 3 ml volume. Excitation of samples was at 280 nm (5 nm slit width) and emission was recorded at 300–400 nm (20 nm slit width). Ligand titrations were performed with 0.2 µM protein with λex 280 nm λem 340 nm using 5 nm excitation and 20 nm emission slit widths respectively. Except where indicated, data from three independent titrations was used to calculate K d values, by fitting to the quadratic equation for tight binding as previously described.

- Kd: 15 ± 3 nM
SMILES: O=C(O)C(=O)Cc1ccc(O)cc1 [4-HPP, 4-hydroxyphenylpyruvate]
